Source: US7176277
These are yes or no findings as the source states them, for the method shown. Binding seen in cells or lysates may run through a third protein. Some binding calls cover weakened binding; strength is not graded here.

Amino acid sequences for entries named in this document (tags omitted).
UniProt Q07812: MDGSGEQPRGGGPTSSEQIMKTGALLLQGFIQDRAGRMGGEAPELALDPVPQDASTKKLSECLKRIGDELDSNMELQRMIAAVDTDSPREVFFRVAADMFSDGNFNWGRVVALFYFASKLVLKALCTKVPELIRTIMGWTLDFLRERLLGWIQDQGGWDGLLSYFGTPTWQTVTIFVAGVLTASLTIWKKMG

Molecular target: GST-Bcl-2 [GST: P08515]
Test: GST pull-down, SDS-PAGE autoradiography

Substance: Bax (from UniProt Q07812 1-192)
- binding: binds
